Reference: paper PMC12374808
No constants are given. Whether binding was seen depends on the method and setting. Binding seen in cells or lysates may run through a third protein. A result given as binding can be weak or reduced; the word gives no strength.

By UniProt entry, the sequences of proteins in these tests, tags left out. Where a name states a change or a piece, a line headed by the entry shows the natural chain unless it says otherwise.
UniProt P16070: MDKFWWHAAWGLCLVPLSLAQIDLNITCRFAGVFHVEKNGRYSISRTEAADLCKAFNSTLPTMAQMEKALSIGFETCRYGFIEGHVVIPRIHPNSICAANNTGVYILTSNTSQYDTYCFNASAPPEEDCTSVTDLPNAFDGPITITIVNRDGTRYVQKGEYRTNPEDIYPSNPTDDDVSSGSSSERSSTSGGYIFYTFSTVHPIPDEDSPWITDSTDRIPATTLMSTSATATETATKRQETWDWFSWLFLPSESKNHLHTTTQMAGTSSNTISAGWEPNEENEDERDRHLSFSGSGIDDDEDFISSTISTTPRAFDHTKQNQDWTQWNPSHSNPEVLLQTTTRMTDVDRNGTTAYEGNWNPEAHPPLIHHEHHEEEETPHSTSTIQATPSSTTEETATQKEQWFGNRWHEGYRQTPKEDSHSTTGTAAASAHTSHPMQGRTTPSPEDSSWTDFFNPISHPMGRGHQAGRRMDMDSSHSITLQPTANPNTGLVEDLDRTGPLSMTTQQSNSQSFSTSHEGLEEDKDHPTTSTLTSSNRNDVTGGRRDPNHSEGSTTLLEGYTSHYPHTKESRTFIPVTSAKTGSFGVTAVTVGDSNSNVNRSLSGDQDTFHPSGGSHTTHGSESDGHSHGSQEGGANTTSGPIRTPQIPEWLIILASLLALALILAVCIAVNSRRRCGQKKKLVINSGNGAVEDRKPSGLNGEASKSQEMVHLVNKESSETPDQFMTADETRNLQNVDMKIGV
UniProt P05412: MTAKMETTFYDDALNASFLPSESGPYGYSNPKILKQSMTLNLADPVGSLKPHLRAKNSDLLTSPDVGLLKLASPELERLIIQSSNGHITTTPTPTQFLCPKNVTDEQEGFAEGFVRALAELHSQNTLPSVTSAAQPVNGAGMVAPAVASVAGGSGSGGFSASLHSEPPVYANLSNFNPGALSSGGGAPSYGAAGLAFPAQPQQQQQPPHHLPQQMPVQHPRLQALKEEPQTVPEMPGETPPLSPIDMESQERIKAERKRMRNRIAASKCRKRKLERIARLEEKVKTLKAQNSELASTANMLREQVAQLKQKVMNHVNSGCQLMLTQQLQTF

Target: cleaved intracellular domain (ICD) of CD44 (CD44-ICD) (human (endogenous in A549)) (UniProt P16070)
Assay: co-IP; nuclear fraction of A549 cells treated with 200 ng/ml rhTSG6 for 2 hours; immunoprecipitation, then immunoblot with anti-CD44, anti-c-Fos and anti-c-Jun

**Q.** c-Jun (from UniProt P05412 1-331) was tested. Which binding did it give?
**A.** Its binding is “binds”.
